Test results published in paper doi:10.1101/2020.03.16.993600.
These are yes or no findings as the source states them, for the method shown. In cells and extracts the contact can be indirect. A yes stands for co-enrichment or nearness to the bait. Other partners may have been found.

By UniProt entry, the sequences of proteins in these tests, tags left out.
UniProt Q96PZ2: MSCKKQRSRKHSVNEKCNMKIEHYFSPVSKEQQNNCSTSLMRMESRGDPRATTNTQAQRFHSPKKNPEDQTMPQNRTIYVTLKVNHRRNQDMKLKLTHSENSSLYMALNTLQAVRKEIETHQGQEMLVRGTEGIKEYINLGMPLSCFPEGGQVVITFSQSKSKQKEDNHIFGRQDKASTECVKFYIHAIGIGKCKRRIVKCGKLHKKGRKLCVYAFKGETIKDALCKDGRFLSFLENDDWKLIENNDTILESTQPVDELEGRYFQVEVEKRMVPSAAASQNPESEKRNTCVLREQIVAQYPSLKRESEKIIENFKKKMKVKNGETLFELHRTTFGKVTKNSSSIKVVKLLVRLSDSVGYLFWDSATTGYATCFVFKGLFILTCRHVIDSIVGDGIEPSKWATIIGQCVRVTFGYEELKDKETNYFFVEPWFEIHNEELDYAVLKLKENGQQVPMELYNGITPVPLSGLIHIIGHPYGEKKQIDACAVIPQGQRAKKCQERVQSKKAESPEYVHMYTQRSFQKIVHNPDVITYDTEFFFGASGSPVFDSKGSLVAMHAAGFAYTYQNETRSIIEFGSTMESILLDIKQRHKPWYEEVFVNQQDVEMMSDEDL

Target: GFP-FAM111A WT (human) (UniProt Q96PZ2)
Experiment: affinity purification with mass spectrometry

- binding: binds
B1: FAM111B (endogenous) (enzyme, UniProt Q6SJ93 1-734)
chain: MNSMKTEENKSFSAMEDDQRTRPEVSKDTVMKQTHADTPVDHCLSGIRKCSSTFKLKSEVNKHETALEMQNPNLNNKECCFTFTLNGNSRKLDRSVFTAYGKPSESIYSALSANDYFSERIKNQFNKNIIVYEEKTIDGHINLGMPLKCLPSDSHFKITFGQRKSSKEDGHILRQCENPNMECILFHVVAIGRTRKKIVKINELHEKGSKLCIYALKGETIEGALCKDGRFRSDIGEFEWKLKEGHKKIYGKQSMVDEVSGKVLEMDISKKKALQQKDIHKKIKQNESATDEINHQSLIQSKKKVHKPKKDGETKDVEHSREQILPPQDLSHYIKDKTRQTIPRIRNYYFCSLPRKYRQINSQVRRRPHLGRRYAINLDVQKEAINLLKNYQTLNEAIMHQYPNFKEEAQWVRKYFREEQKRMNLSPAKQFNIYKKDFGKMTANSVSVATCEQLTYYSKSVGFMQWDNNGNTGNATCFVFNGGYIFTCRHVVHLMVGKNTHPSLWPDIISKCAKVTFTYTEFCPTPDNWFSIEPWLKVSNENLDYAILKLKENGNAFPPGLWRQISPQPSTGLIYLIGHPEGQIKKIDGCTVIPLNERLKKYPNDCQDGLVDLYDTTSNVYCMFTQRSFLSEVWNTHTLSYDTCFSDGSSGSPVFNASGKLVALHTFGLFYQRGFNVHALIEFGYSMDSILCDIKKTNESLYKSLNDEKLETYDEEKGKQESSLQDHQIEPMEC
